Values quoted from earlier work in patent US10314817B2, “Tryptamide compositions and methods of use” (Signum Biosciences, Inc., priority 2014, dated 2019).
Where two headings read alike, the source gives them in different places. Some results were stated once for a whole list of compounds, not compound by compound. At least one structure is not confirmed: it was looked up by name or label, or the drawing left a doubt.

In the case of `C[C@@]12CCc3occc3[C@H]1CC[C@@]13C[C@@H](CC[C@H]12)[C@@](O)(CO)C3` [cafestol], the “increase in cholesterol levels” value (men) is given as ≥ 8% and the “increase in cholesterol levels” value (women) is given as ≥ 10%.
